Results deposited as PubChem BioAssay AID602196 (INSERM, 2012)
This is an unselected part of about 23,000 reagents. Over the whole deposit, 455 (2%) got an active call. 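Active includes both protection and sensitisation; some change values fall well beyond the stated -50 to +50 range.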 Entries without a mark were called inactive. Not all columns of the deposit are shown. Reagent sequences are not shown. Not given: the amount of reagent.

Assay: 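Genes whose knock-down alters cisplatin killing of lung cancer cells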
Cell system: human A549 lung cancer cells
Reagent: siRNA pair against human genes
Timing: 48 h transfection before cisplatin; time from cisplatin to read-out not stated
Conditions: cisplatin at a dose killing half of control-siRNA cells; exact dose and duration not given
Read-out: 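Shift in cisplatin death relative to control siRNA, from -50 (all cells die) to +50 (no cells die); siRNAs harmful on their own scored 0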
Reading the numbers: two-siRNA summed score (-2 to +2): higher = both siRNAs protect from cisplatin killing; -2 means both sensitise; mean protection from cisplatin (shift in death): higher = protection from cisplatin killing
Rule for the call: 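Each siRNA scores 0 if harmful alone by LDH or WST-1, otherwise +1 if it reduces and -1 if it increases cisplatin killing; a gene is active when both siRNAs agree (sum +2 or -2)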
Meaning of the calls: active = both siRNAs shift cisplatin killing the same way; inactive = no consistent shift, or siRNA harmful alone

Against CTH (GeneID 1491), the entry reads two-siRNA summed score (-2 to +2) = 0; mean protection from cisplatin (shift in death) (%) = 7.8.
After knock-down of HTR3C (GeneID 170572) the results were two-siRNA summed score (-2 to +2) = 1; mean protection from cisplatin (shift in death) (%) = 21.7.
Knock-down of CAPG (GeneID 822) resulted in: two-siRNA summed score (-2 to +2) = 0; mean protection from cisplatin (shift in death) (%) = -4.1.
Depletion of CPED1 (GeneID 79974) gave: two-siRNA summed score (-2 to +2) = 0; mean protection from cisplatin (shift in death) (%) = 0.4.
After knock-down of VPS72 (GeneID 6944) the results were two-siRNA summed score (-2 to +2) = 0; mean protection from cisplatin (shift in death) (%) = 6.7.
FMO3 (GeneID 2328) showed two-siRNA summed score (-2 to +2) = 0; mean protection from cisplatin (shift in death) (%) = 28.
Knock-down of UGT1A1 (GeneID 54658) resulted in: two-siRNA summed score (-2 to +2) = 0; mean protection from cisplatin (shift in death) (%) = 8.6.
For GRIK3 (GeneID 2899) the deposit lists two-siRNA summed score (-2 to +2) = 0; mean protection from cisplatin (shift in death) (%) = -11.8.
For MMP2 (GeneID 4313), the values are two-siRNA summed score (-2 to +2) = -1; mean protection from cisplatin (shift in death) (%) = -18.5.
Depletion of LOC441336 resulted in: two-siRNA summed score (-2 to +2) = 0; mean protection from cisplatin (shift in death) (%) = 3.6.
After knock-down of MRPL9 (GeneID 65005), the screen gave two-siRNA summed score (-2 to +2) = 0; mean protection from cisplatin (shift in death) (%) = 4.2.
After knock-down of ZBED2 (GeneID 79413), the record shows two-siRNA summed score (-2 to +2) = 0; mean protection from cisplatin (shift in death) (%) = 7.3.

Part of the list above, reduced to “mean protection from cisplatin (shift in death) (%)”:
GRIK3 (GeneID 2899)	-11.8
MMP2 (GeneID 4313)	-18.5
